# Laboratory results: paper PMC9475456, “DDX56 transcriptionally activates MIST1 to facilitate tumorigenesis of HCC through PTEN-AKT signaling”
# Target: T1, DDX56 (His-DDX56) (human) (UniProt Q9NY93)
# T1 sequence (looked up, limits assumed): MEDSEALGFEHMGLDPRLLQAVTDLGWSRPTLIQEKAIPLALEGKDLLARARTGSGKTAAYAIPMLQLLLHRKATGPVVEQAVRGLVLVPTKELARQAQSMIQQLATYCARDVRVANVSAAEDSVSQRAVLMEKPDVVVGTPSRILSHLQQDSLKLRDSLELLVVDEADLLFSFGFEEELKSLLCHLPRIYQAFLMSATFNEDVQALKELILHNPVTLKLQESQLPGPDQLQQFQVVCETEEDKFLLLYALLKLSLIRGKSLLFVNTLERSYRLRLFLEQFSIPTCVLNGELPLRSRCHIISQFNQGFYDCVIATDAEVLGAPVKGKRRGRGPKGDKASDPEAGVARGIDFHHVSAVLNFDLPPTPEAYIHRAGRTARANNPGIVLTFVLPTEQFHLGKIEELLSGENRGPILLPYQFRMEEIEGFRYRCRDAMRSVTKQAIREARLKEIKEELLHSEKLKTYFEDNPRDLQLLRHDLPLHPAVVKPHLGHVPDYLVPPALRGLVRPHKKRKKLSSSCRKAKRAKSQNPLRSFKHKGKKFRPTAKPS
# Test: EMSA
# Settings: LightShift EMSA kit, 20 uL: 2 uL 10x binding buffer, 1 uL 50% glycerol, 1 uL 100 mM MgCl2, 1 ug/uL poly(dI-dC), 1 uL 1% NP-40, 2 ug protein; commercial protein; protein details: N-terminal His; label: 5' biotin
row,Sequence,binding result
1,ATGCGTCCGCGGCCCCTCCCGGGGCGGCTAAAGCGACGTGTCCT (double strand) [MIST1 promoter -28 to +15],no binding
2,CGGACCCCGGCCCCGCCCCGGCCCCGCCCCGAGGGCTCATTTGC (double strand) [MIST1 promoter -72 to -29],no binding
3,GCCCGCAGGTGCCGCCACTGCTGCCCAGCGCCCGCCGGGACACC (double strand) [MIST1 promoter -116 to -73],no binding
4,TGTCCCCCGTGGGCAGCCTCGGCGCGTGTGGCCGCGGATCCCCAGGTAAC (double strand) [MIST1 promoter +16 to +64],no binding
5,TTCTATCTTGGGGGCGGGGCGGAAGCTGGGGGCGGGGCTGCGCG (double strand) [MIST1 promoter -204 to -161],no binding

# Target: T1, DDX56 (His-DDX56) (human)
# Test: competition with a labelled probe
# Settings: 200-fold excess unlabeled probe inhibits binding of biotin probe; LightShift EMSA kit, 20 uL: 2 uL 10x binding buffer, 1 uL 50% glycerol, 1 uL 100 mM MgCl2, 1 ug/uL poly(dI-dC), 1 uL 1% NP-40, 2 ug protein; commercial protein; protein details: N-terminal His
row,Sequence,binding result
1,GCCACCTGGTCCGGGAGCCCCAGGCGCCGGCCTCCCGCCCGCCC (double strand) [unlabeled MIST1 competitor (-160 to -117)],binds

# The exact form of at least one protein or probe is not confirmed. For part of these data: No signal at the amounts used counts as a negative. At least one verdict was read from the data and is not stated in words by the source. Tags and fusion partners may be left off the protein sequences shown.
